The campaign covered roughly 210,000 compounds. About 5,900 (2.8%) were called active. Not shown: some 5% with an inconclusive outcome. The call rests on the fitted dose curve; in most records, active means well fitted activation curve with a large enough effect; inconclusive means small, poorly fitted or top-dose-only effect; inactive means no such curve, though single readings can be large or run the other way. This is a selection; strong and weak results do not stand in their true shares. Where no call is shown, the source filed none.
Potency means the concentration at half of the fitted maximal effect.

This assay in a line: qHTS Assay for Enhancers of SMN2 Splice Variant Expression. Further: nearly all actives have a fitted effect of over 55% in size. On activity change, positive = activation: % of control where 0% means no effect. As to conditions: HEK293 SMN2-luciferase splicing reporter, luminescence, 30-36 h; activity change, positive = activation: at 46.1 µM (top of the series) unless noted. The procedure, abridged:
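HEK293 cells carry an SMN2 […]–luciferase reporter in which exon 7 inclusion puts luciferase in frame. Cells were plated 10-12 h before compound addition, then incubated 30-36 h at 37C. ONE-Glo luminescence was read; sodium butyrate at 4.5 mM final served as control.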
(In general: In qHTS, concentration-response curves come from the screen itself.)
Consider `CCOC(=O)c1cnc(-c2ccccc2)nc1N`, for which the Potency is active: 7.08 µM. Consider `O=C(CC1CCCCC1)c1c(O)c2ccccc2oc1=O`, for which the activity change, positive = activation was -58.3%. With `CCSc1ncc(/C=N/Nc2ccc(Cl)cc2)n1C`, the Potency was active: 20 µM.

On to `COc1ccc(S(=O)(=O)Nc2ccc(F)cc2)cc1N(C)S(=O)(=O)c1ccc(Cl)cc1`, for which the activity change, positive = activation was -51%. Turning to `O=C(Nc1nc2ccccc2[nH]1)c1ccccc1F`, the activity change, positive = activation is -48.7%.

On to `CC1=CC(C2CC(=O)N(c3ccccc3C)C2=O)CC2C(=O)N(c3ccccc3C)C(=O)C12` (stereo not given), for which the activity change, positive = activation is 7.04%.

In the case of `O=c1c2ccccc2cnn1CCOc1ccccc1`, the activity change, positive = activation was -71.2%. On to `COC(=O)C(NC(C)=O)(Nc1ccccc1)C(=O)OC`, for which the activity change, positive = activation was 46.3%. Still for that read-out and setting: the same measure for `Cc1cc(C)c2nc(NNC(=O)c3ccc(S(=O)(=O)N4CCc5ccccc5C4)cc3)sc2c1`: inactive: -116%. In the case of `COc1ccccc1NC(=O)c1ccc(NC(=O)c2cc3c(s2)CCC3)cc1`, the “activity change, positive = activation” value is inactive: -33.5%. Take `COc1cccc(CNC(=O)c2ccccc2N)c1`: the activity change, positive = activation was 40.6%.

For the compound `Cc1ccc(C(=O)OCn2ncc(Cl)c(Cl)c2=O)cc1`, the activity change, positive = activation is -74.1%.

Turning to `COc1ccc2nc(N=Nc3c(O)ccc4ccccc34)sc2c1`, the activity change, positive = activation was -91.1%. Regarding `COc1ccc(NC2=CC(=O)CC(c3ccccc3)C2)c(OC)c1` (stereo not given), the activity change, positive = activation was found to be 16%. Still for that read-out and setting: in the case of `CCOc1ccc(-n2cnnn2)cc1S(=O)(=O)NCCc1ccc(OC)c(OC)c1` it was 30.2%; in that of `NS(=O)(=O)c1ccc(CNC(=S)NCc2ccc(Cl)cc2)cc1`, inactive: -30.4%. Regarding `COc1cc(C(=O)N/N=C/c2ccc(OC)c(CN3CCN(c4ccc(F)cc4)CC3)c2)ccc1O`, the activity change, positive = activation is -18.2%. Take `O=C(Nc1ccc(Cl)c(Cl)c1)C1CC(=O)N(c2ccc(Br)cc2)C1` (stereo not given): the “activity change, positive = activation” value was inactive: -78.8%.

Regarding `COc1ccc(S(=O)(=O)N2CCCCC2)cc1NC(=O)c1ccc([N+](=O)[O-])o1`, the “activity change, positive = activation” value is inactive: -40.1%.

As to `O=C(CSc1nnc2c(n1)[nH]c1ccccc12)Nc1ccc2c(c1)OCO2`, the “activity change, positive = activation” value was inactive: -47.8%. In the case of `Cc1cccc(NC(=O)c2cnc3scc(C)n3c2=O)c1`, the Potency was active: 12.6 µM. On to `CN(C)c1cccc(C(=O)OCC(=O)N(Cc2ccccc2)C2CCS(=O)(=O)C2)c1` (stereo not given), for which the activity change, positive = activation came out at 104%. In the case of `CCCCOC(=O)Nc1ccc2c(C)cc(=O)oc2c1`, the Potency was active: 11.2 µM. Regarding `O=C(NC(=O)c1ccccc1)Nc1ccc(-c2cc(C(F)(F)F)nn2-c2ccccc2)cc1`, the activity change, positive = activation came to 21.2%.

Consider `CC(C)C(c1nnnn1C1CCCC1)N(C)C1CCCCC1` (stereo not given), for which the activity change, positive = activation is 38.4%. Still for that read-out and setting: the same measure for `COc1ccc(/C=N/Nc2ncc(C(F)(F)F)cc2Cl)cc1OC`: 34.7%. Regarding `Cc1cc(NCCCn2ccnc2)n2nc(C)c(-c3ccc(Cl)cc3)c2n1`, the activity change, positive = activation is -34.3%. `CCc1c(C)sc(NC(=O)c2ccco2)c1C(=O)N1CCCCC1`: the activity change, positive = activation was found to be 25.2%. With `Cc1ccc2nsnc2c1N(S(C)(=O)=O)S(C)(=O)=O`, the activity change, positive = activation is 32.2%. Same read-out and setting: in the case of `COC(=O)C1SCC2C(=O)N(Cc3ccccc3)CC(=O)N21` (stereo not given) it was inactive: 9.38%.

For the origin of these results see PubChem BioAssay AID1458 (National Center for Advancing Translational Sciences (NCATS), 2008).
